Results are given in words; binding and its absence hold for the method and conditions named. Binding seen in cells or lysates may run through a third protein. Some entries that bind do so weakly or less than the wild type.
Target: Hu antigen R (HuR) (human (endogenous in T24 and RT4)) (UniProt Q15717)
Assay: co-IP; T24 and RT4 cells lysed in IP buffer; 2 ug anti-HuR overnight at 4°C, Protein A/G Agarose, five washes in IP buffer; Western blot with anti-USP5

Amino acid sequences for entries named in this document (tags omitted).
UniProt Q15717: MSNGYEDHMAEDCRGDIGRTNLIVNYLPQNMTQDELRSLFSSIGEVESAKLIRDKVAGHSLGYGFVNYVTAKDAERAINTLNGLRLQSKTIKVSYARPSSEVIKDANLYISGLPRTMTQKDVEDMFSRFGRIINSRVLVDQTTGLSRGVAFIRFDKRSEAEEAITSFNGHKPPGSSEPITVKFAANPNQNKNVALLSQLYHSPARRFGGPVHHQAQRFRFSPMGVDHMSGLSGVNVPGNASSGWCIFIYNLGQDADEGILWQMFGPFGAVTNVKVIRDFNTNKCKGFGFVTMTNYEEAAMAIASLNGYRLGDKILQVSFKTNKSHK
UniProt P45974: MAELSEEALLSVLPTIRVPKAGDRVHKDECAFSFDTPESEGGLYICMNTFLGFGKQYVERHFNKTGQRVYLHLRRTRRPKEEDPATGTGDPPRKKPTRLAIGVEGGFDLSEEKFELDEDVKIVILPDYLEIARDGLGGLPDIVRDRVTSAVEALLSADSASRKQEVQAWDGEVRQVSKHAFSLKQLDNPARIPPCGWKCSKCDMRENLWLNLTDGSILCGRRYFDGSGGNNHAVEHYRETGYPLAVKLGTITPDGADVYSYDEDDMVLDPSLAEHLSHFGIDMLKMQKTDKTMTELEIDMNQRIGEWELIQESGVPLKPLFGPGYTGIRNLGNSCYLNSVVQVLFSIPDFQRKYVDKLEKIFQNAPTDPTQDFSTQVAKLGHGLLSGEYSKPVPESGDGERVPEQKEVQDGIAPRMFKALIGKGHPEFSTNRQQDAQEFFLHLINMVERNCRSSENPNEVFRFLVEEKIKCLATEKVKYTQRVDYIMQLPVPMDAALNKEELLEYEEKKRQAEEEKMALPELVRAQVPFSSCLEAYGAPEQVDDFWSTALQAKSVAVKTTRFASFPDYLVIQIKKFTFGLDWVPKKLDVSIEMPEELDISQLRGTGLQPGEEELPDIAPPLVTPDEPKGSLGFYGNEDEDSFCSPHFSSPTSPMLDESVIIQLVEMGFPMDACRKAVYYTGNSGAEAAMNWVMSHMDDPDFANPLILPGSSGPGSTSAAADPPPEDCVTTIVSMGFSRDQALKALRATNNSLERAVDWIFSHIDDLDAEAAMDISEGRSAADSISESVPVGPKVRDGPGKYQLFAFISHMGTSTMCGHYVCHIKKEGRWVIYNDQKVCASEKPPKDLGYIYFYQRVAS

binding: binds
Substance: ubiquitin-specific processing protease 5 (USP5) (from UniProt P45974 1-858) (enzyme)

— article PMC7744027
